{"source": "PubChem BioAssay (NCATS)", "note": "Inconclusive results, whose numbers are uncertain, are shown with a selection of clear calls. A potency beside an inconclusive call is a rough fit, not a confirmed value. Active and inactive are the calls of the source. The call rests on the fitted dose curve; in most records, active means well fitted cell-killing curve with a large enough effect; inconclusive means small, poorly fitted or top-dose-only effect, or effect the other way; inactive means flat fitted curve, though single readings scatter. Potency means the concentration at half of the fitted maximal effect."}
{"assay": "qHTS of pediatric cancer cell lines to identify multiple opportunities for drug repurposing: Confirmatory screen for Rh18 cells (AID 1347125); further: nearly all actives have a fitted effect of over 55% in size", "settings": "Rh18 rhabdomyosarcoma cells, viability; series mostly up to 45.9 µM", "in_short": "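Cells (500-1,000/well) in growth media were settled 5 h at 37 degrees C, then given compounds for 48 h. Viability was read as CellTiter-Glo luminescence. Primary runs used MIPE at 11 points (0.78 nM-46 µM) and NPC at 8 points (0.59 nM-46 µM); follow-ups used 11 points.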"}
{"smiles": "CC(C)C[C@H](NC(=O)CNC(=O)c1cc(Cl)ccc1Cl)B1OC(=O)CC(CC(=O)O)(C(=O)O)O1", "note": "(stereo not given in full)", "Potency": "active: 0.369 µM"}
{"smiles": "COc1cccc2c1C(=O)c1c(O)c3c(c(O)c1C2=O)C[C@@](O)(C(=O)CO)C[C@H]3O[C@H]1C[C@H](N)[C@H](O)[C@H](C)O1", "Potency": "active: 1.47 µM"}
{"smiles": "CC(N[C@H]1CCCC[C@H]1NC(=O)c1ccc(Cl)cc1)c1cccc2ccccc12", "note": "(stereo not given in full)", "Potency": "inconclusive: 26.1 µM [cytotoxic, single point]"}
{"smiles": "CC(=O)OCC(=O)[C@@]1(O)[C@H](C)C[C@H]2[C@@H]3CCC4=CC(=O)C=C[C@]4(C)[C@@]3(F)[C@@H](O)C[C@@]21C", "Potency": "inconclusive: 36.9 µM [cytotoxic, single point]"}
{"smiles": "COc1cc2ncnc(Nc3cccc(Br)c3)c2cc1OC", "Potency": "inconclusive: 36.9 µM [cytotoxic, single point]"}
{"smiles": "COc1cc(C=CC(=O)CC(=O)C=Cc2ccc(O)c(OC)c2)ccc1O", "Potency": "inconclusive: 47.9 µM [cytotoxic, single point]"}
{"smiles": "O=C(O)c1ccc(Nc2ncc3c(n2)-c2ccc(Cl)cc2C(c2c(F)cccc2F)=NC3)cc1", "Potency": "inconclusive: 7.37 µM [cytotoxic, full curve, poor fit]"}
{"smiles": "COC(=O)c1ccc2c(C(=Nc3ccc(N(C)C(=O)CN4CCN(C)CC4)cc3)c3ccccc3)c(O)[nH]c2c1", "Potency": "active: 26.1 µM"}
{"smiles": "Oc1c(Cl)cc(Cl)c2cccnc12", "Potency": "inconclusive: 23.3 µM [cytotoxic, single point]"}
{"smiles": "CCC(C)(C)C(=O)O[C@H]1C[C@@H](C)C=C2C=C[C@H](C)[C@H](CC[C@@H]3C[C@@H](O)CC(=O)O3)[C@H]21", "Potency": "inconclusive: 9.27 µM [cytotoxic, partial curve]"}
